Results taken from paper PMC12396302.

Protein sequences, listed by entry. Tags and fused reporters are not part of them.
UniProt O00255: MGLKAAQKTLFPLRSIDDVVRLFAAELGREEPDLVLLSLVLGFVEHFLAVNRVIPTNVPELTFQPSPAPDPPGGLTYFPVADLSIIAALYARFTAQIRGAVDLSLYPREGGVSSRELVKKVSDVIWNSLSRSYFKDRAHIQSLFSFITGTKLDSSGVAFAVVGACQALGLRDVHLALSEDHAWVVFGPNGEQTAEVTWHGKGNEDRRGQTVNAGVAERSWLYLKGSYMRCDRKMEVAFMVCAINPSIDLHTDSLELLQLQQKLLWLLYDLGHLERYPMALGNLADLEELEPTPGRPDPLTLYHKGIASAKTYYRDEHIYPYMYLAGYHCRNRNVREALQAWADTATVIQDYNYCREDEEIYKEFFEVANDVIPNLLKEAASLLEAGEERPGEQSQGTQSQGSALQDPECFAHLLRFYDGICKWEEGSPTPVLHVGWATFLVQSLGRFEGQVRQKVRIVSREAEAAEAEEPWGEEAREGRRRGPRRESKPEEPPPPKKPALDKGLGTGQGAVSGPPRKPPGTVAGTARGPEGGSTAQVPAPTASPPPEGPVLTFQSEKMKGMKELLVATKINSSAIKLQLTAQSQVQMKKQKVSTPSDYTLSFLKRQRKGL
UniProt P67809: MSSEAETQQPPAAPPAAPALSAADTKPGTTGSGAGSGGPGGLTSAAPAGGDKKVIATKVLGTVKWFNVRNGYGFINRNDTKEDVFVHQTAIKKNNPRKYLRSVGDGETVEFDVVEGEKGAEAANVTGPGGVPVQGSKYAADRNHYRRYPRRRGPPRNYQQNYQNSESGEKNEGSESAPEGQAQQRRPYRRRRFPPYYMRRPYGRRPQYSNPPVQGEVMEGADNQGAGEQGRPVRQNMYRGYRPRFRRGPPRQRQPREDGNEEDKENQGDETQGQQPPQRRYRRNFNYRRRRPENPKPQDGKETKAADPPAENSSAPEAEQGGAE

Molecular target: Menin (human (endogenous in PL45 and Bx-PC3)) (UniProt O00255)
Test: affinity purification with mass spectrometry; immunoprecipitation from PL45 cell lysate with anti-Menin antibody on beads (Pierce Direct Magnetic IP/Co-IP kit), overnight at 4°C, IgG as negative control; eluted proteins analysed by LC-MS/MS

binding: binds
Substance: Y-box binding protein 1 (YBX1) (from UniProt P67809 1-324)

These are yes or no findings as the source states them, for the method shown. Binding seen in cells or lysates may run through a third protein. These calls come from enrichment with a bait or labelling near it, and not all partners need be listed.
